PubChem BioAssay AID1224830 – NIAID, 2016
The deposit covers about 18,000 reagents; shown is an unselected part. In the full data, about 2,900 (16%) got an active call. 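Calls are made per well; low scores hint the gene aids the LPS response, high scores that it dampens it.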 A number with no mark means an inactive call. Repeated entries: four replicate wells of each siRNA pool. Reagent sequences are not shown.

Screen: 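Genes whose knock-down alters the TNF-alpha reporter response to LPS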 (primary screen)
Cell system: human THP-1 monocytic leukaemia cells, TNF dual-luciferase reporter clone, PMA-differentiated to macrophage-like cells
Reagents: siRNA pool against human genes, 50 nM
Time to read-out: LPS for 4 h, given about 3 days after siRNA transfection
Treatment: bacterial LPS (TLR4 ligand), 10 ng/ml
Measured: 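Ratio of firefly to renilla light, scaled to the plate median and expressed as a robust z-score per replicate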
Reading the numbers: TNF reporter robust z-score: higher = stronger TNF reporter response to LPS
Call rule: 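Each well counts as active if its z-score is over 2.8 or under -1.5; controls are left without a call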

| target gene | TNF reporter robust z-score |
| --- | --- |
| TMEM132E-DT (TMEM132E divergent transcript) | 0.41 |
| TMEM132E-DT (TMEM132E divergent transcript) | -0.23 |
| TMEM132E-DT (TMEM132E divergent transcript) | 1.37 |
| TMEM132E-DT (TMEM132E divergent transcript) | 0.98 |
| PHETA2 (PH domain containing endocytic trafficking adaptor 2) | -0.67 |
| PHETA2 (PH domain containing endocytic trafficking adaptor 2) | 0.15 |
| PHETA2 (PH domain containing endocytic trafficking adaptor 2) | -0.35 |
| PHETA2 (PH domain containing endocytic trafficking adaptor 2) | -0.47 |
| OR10P1 (olfactory receptor family 10 subfamily P member 1) | 0.96 |
| OR10P1 (olfactory receptor family 10 subfamily P member 1) | 0.11 |
| OR10P1 (olfactory receptor family 10 subfamily P member 1) | -0.08 |
| OR10P1 (olfactory receptor family 10 subfamily P member 1) | 0.61 |
| LRIT3 (leucine rich repeat, Ig-like and transmembrane domains 3) | -0.68 |
| LRIT3 (leucine rich repeat, Ig-like and transmembrane domains 3) | 0.57 |
| LRIT3 (leucine rich repeat, Ig-like and transmembrane domains 3) | 0.14 |
| LRIT3 (leucine rich repeat, Ig-like and transmembrane domains 3) | -0.36 |
| ADAMTS20 (ADAM metallopeptidase with thrombospondin type 1 motif 20) | -1.05 |
| ADAMTS20 (ADAM metallopeptidase with thrombospondin type 1 motif 20) | -0.92 |
| ADAMTS20 (ADAM metallopeptidase with thrombospondin type 1 motif 20) | -0.31 |
| ADAMTS20 (ADAM metallopeptidase with thrombospondin type 1 motif 20) | 0.54 |
| BET1 (Bet1 golgi vesicular membrane trafficking protein) | 1.88 |
| BET1 (Bet1 golgi vesicular membrane trafficking protein) | 1.39 |
| BET1 (Bet1 golgi vesicular membrane trafficking protein) | 0.73 |
| BET1 (Bet1 golgi vesicular membrane trafficking protein) | 1.19 |
| CSTL1 (cystatin like 1) | 2.83 (active) |
| CSTL1 (cystatin like 1) | 1.47 |
| CSTL1 (cystatin like 1) | 0.95 |
| CSTL1 (cystatin like 1) | 1.6 |
| MOB4 (MOB family member 4, phocein) | 1.48 |
| MOB4 (MOB family member 4, phocein) | 0.65 |
| MOB4 (MOB family member 4, phocein) | 0.04 |
| MOB4 (MOB family member 4, phocein) | 1.4 |
| OR5A2 (olfactory receptor family 5 subfamily A member 2) | -0.05 |
| OR5A2 (olfactory receptor family 5 subfamily A member 2) | -0.56 |
| OR5A2 (olfactory receptor family 5 subfamily A member 2) | -0.64 |
| OR5A2 (olfactory receptor family 5 subfamily A member 2) | -1.39 |
| RELL2 (RELT like 2) | -0.79 |
| RELL2 (RELT like 2) | -0.42 |
| RELL2 (RELT like 2) | -0.28 |
| RELL2 (RELT like 2) | -0.25 |
| RNF31 (ring finger protein 31) | -0.88 |
| RNF31 (ring finger protein 31) | -0.48 |
| RNF31 (ring finger protein 31) | 0.43 |
| RNF31 (ring finger protein 31) | -0.32 |
| SUSD1 (sushi domain containing 1) | 1.32 |
| SUSD1 (sushi domain containing 1) | 3.15 (active) |
| SUSD1 (sushi domain containing 1) | 1.83 |
| SUSD1 (sushi domain containing 1) | 1.86 |
| DPPA4 (developmental pluripotency associated 4) | -0.04 |
| DPPA4 (developmental pluripotency associated 4) | 0.84 |
| DPPA4 (developmental pluripotency associated 4) | 0.87 |
| DPPA4 (developmental pluripotency associated 4) | 0.97 |
| DENND4C (DENN domain containing 4C) | -0.24 |
| DENND4C (DENN domain containing 4C) | 0.41 |
| DENND4C (DENN domain containing 4C) | 0.36 |
| DENND4C (DENN domain containing 4C) | 0.67 |
| HHATL (hedgehog acyltransferase like) | -0.46 |
| HHATL (hedgehog acyltransferase like) | 0.35 |
| HHATL (hedgehog acyltransferase like) | -0.97 |
| HHATL (hedgehog acyltransferase like) | 1.13 |

Part of the list above, set out differently.
{"target gene":"CSTL1 (cystatin like 1)","TNF reporter robust z-score":"2.83 (active)"}
{"target gene":"CSTL1 (cystatin like 1)","TNF reporter robust z-score":1.47}
{"target gene":"CSTL1 (cystatin like 1)","TNF reporter robust z-score":0.95}
{"target gene":"CSTL1 (cystatin like 1)","TNF reporter robust z-score":1.6}
{"target gene":"MOB4 (MOB family member 4, phocein)","TNF reporter robust z-score":1.48}
{"target gene":"MOB4 (MOB family member 4, phocein)","TNF reporter robust z-score":0.65}
{"target gene":"MOB4 (MOB family member 4, phocein)","TNF reporter robust z-score":0.04}
{"target gene":"MOB4 (MOB family member 4, phocein)","TNF reporter robust z-score":1.4}
{"target gene":"OR5A2 (olfactory receptor family 5 subfamily A member 2)","TNF reporter robust z-score":-0.05}
{"target gene":"OR5A2 (olfactory receptor family 5 subfamily A member 2)","TNF reporter robust z-score":-0.56}
{"target gene":"OR5A2 (olfactory receptor family 5 subfamily A member 2)","TNF reporter robust z-score":-0.64}
{"target gene":"OR5A2 (olfactory receptor family 5 subfamily A member 2)","TNF reporter robust z-score":-1.39}
{"target gene":"RELL2 (RELT like 2)","TNF reporter robust z-score":-0.79}
{"target gene":"RELL2 (RELT like 2)","TNF reporter robust z-score":-0.42}

Continued.
| target gene | TNF reporter robust z-score |
| --- | --- |
| CNPY3 (canopy FGF signaling regulator 3) | -0.47 |
| CNPY3 (canopy FGF signaling regulator 3) | -1.03 |
| CNPY3 (canopy FGF signaling regulator 3) | -0.72 |
| CNPY3 (canopy FGF signaling regulator 3) | -0.55 |
| MBNL1 (muscleblind like splicing regulator 1) | -1.51 (active) |
| MBNL1 (muscleblind like splicing regulator 1) | -1.58 (active) |
| MBNL1 (muscleblind like splicing regulator 1) | -1.26 |
| MBNL1 (muscleblind like splicing regulator 1) | -1.04 |
| PAK5 (p21 (RAC1) activated kinase 5) | 0.92 |
| PAK5 (p21 (RAC1) activated kinase 5) | 0.77 |
| PAK5 (p21 (RAC1) activated kinase 5) | 0.86 |
| PAK5 (p21 (RAC1) activated kinase 5) | 1.6 |
| AJUBA (ajuba LIM protein) | 0.46 |
| AJUBA (ajuba LIM protein) | -0.01 |
| AJUBA (ajuba LIM protein) | 0.23 |
| AJUBA (ajuba LIM protein) | 3.91 (active) |
| KAT2A (lysine acetyltransferase 2A) | -1.29 |
| KAT2A (lysine acetyltransferase 2A) | 1.83 |
| KAT2A (lysine acetyltransferase 2A) | 1.11 |
| KAT2A (lysine acetyltransferase 2A) | 0.84 |
| ADGRG3 (adhesion G protein-coupled receptor G3) | -0.47 |
| ADGRG3 (adhesion G protein-coupled receptor G3) | -0.66 |
| ADGRG3 (adhesion G protein-coupled receptor G3) | -0.72 |
| BCL2A1 (BCL2 related protein A1) | 0.16 |
| BCL2A1 (BCL2 related protein A1) | 0.08 |
| BCL2A1 (BCL2 related protein A1) | -0.5 |
| BCL2A1 (BCL2 related protein A1) | 0.35 |
| DPYSL4 (dihydropyrimidinase like 4) | 0.3 |
| DPYSL4 (dihydropyrimidinase like 4) | 0.42 |
| DPYSL4 (dihydropyrimidinase like 4) | -0.55 |
| DPYSL4 (dihydropyrimidinase like 4) | -0.11 |
| GINS4 (GINS complex subunit 4) | 0.56 |
| GINS4 (GINS complex subunit 4) | 0.1 |
| GINS4 (GINS complex subunit 4) | -0.06 |
| GINS4 (GINS complex subunit 4) | 1.33 |
| IRX6 (iroquois homeobox 6) | -0.71 |
| IRX6 (iroquois homeobox 6) | -0.69 |
| IRX6 (iroquois homeobox 6) | -1.05 |
| IRX6 (iroquois homeobox 6) | -0.96 |
| MOS (MOS proto-oncogene, serine/threonine kinase) | -1.72 (active) |
| MOS (MOS proto-oncogene, serine/threonine kinase) | -1.81 (active) |
| MOS (MOS proto-oncogene, serine/threonine kinase) | -1.77 (active) |
| MOS (MOS proto-oncogene, serine/threonine kinase) | -1.45 |
| TMEFF2 | -1.66 (active) |
| TMEFF2 | -0.78 |
| TMEFF2 | -1.16 |
| TMEFF2 | -1.39 |
| SDK1 (sidekick cell adhesion molecule 1) | -0.6 |
| SDK1 (sidekick cell adhesion molecule 1) | -0.42 |
| SDK1 (sidekick cell adhesion molecule 1) | -0.89 |
| SDK1 (sidekick cell adhesion molecule 1) | 0.26 |
| NUP43 (nucleoporin 43) | -1.08 |
| NUP43 (nucleoporin 43) | -1.37 |
| NUP43 (nucleoporin 43) | -1.28 |
| NUP43 (nucleoporin 43) | -1.38 |
| EIF3K (eukaryotic translation initiation factor 3 subunit K) | -0.81 |
| EIF3K (eukaryotic translation initiation factor 3 subunit K) | -0.13 |
| EIF3K (eukaryotic translation initiation factor 3 subunit K) | -0.2 |
| EIF3K (eukaryotic translation initiation factor 3 subunit K) | -0.27 |
| ABCF1 (ATP binding cassette subfamily F member 1) | -0.15 |
| ABCF1 (ATP binding cassette subfamily F member 1) | 0.61 |
| ABCF1 (ATP binding cassette subfamily F member 1) | 0.5 |
| ABCF1 (ATP binding cassette subfamily F member 1) | 0.52 |
| CZIB (CXXC motif containing zinc binding protein) | 0.24 |
| CZIB (CXXC motif containing zinc binding protein) | 1.91 |
| CZIB (CXXC motif containing zinc binding protein) | 0.3 |
| CZIB (CXXC motif containing zinc binding protein) | 1.51 |
| RBM12B (RNA binding motif protein 12B) | -0.59 |
| RBM12B (RNA binding motif protein 12B) | 0.43 |
| RBM12B (RNA binding motif protein 12B) | -0.41 |
| RBM12B (RNA binding motif protein 12B) | 1.07 |
| LIMK1 (LIM domain kinase 1) | 0.26 |
| LIMK1 (LIM domain kinase 1) | 1.05 |
| LIMK1 (LIM domain kinase 1) | 0.16 |
| LIMK1 (LIM domain kinase 1) | 1.33 |
| TMEM183A (transmembrane protein 183A) | 1.43 |
| TMEM183A (transmembrane protein 183A) | 1.46 |
| TMEM183A (transmembrane protein 183A) | 0.31 |
| TMEM183A (transmembrane protein 183A) | 0.75 |
| ACTL7A (actin like 7A) | -0.99 |
| ACTL7A (actin like 7A) | -1.09 |
| ACTL7A (actin like 7A) | -1.04 |
| ACTL7A (actin like 7A) | -0.87 |
